The other results are listed elsewhere or left out.

Sequences of proteins named here, by UniProt entry; tags and fusion partners are left off. A change or cut given only in a name is not applied to a line headed by its entry.
UniProt P30613: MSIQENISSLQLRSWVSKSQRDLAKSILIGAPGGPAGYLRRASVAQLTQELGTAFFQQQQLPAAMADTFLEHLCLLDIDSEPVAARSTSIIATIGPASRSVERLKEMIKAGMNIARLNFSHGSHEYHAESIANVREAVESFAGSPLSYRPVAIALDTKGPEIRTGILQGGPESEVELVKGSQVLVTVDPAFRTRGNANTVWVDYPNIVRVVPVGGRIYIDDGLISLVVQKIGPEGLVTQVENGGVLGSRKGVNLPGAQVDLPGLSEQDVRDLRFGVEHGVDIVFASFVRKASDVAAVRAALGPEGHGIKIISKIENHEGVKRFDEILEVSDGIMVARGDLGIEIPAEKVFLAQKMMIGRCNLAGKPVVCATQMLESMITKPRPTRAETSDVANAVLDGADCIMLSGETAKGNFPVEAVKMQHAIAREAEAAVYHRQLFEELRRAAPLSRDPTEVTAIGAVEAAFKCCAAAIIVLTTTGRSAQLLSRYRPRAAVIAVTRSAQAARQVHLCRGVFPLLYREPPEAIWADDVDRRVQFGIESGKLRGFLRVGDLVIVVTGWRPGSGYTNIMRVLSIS
UniProt Q96G03: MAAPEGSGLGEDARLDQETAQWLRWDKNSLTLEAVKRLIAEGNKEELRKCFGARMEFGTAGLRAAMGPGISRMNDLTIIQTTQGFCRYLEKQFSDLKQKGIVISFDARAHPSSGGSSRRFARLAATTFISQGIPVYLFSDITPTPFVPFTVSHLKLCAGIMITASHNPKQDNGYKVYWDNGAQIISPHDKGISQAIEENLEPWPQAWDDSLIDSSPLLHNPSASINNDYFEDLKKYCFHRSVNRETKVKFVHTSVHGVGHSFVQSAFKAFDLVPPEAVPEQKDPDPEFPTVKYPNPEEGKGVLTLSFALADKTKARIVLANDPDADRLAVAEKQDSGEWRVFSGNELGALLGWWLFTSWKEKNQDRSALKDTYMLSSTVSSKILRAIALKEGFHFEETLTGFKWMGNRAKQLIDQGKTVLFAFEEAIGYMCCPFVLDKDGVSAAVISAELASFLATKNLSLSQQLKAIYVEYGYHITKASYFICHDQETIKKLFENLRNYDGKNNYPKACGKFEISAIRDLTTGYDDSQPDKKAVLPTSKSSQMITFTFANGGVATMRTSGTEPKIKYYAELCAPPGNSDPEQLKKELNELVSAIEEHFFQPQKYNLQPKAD
UniProt P48739: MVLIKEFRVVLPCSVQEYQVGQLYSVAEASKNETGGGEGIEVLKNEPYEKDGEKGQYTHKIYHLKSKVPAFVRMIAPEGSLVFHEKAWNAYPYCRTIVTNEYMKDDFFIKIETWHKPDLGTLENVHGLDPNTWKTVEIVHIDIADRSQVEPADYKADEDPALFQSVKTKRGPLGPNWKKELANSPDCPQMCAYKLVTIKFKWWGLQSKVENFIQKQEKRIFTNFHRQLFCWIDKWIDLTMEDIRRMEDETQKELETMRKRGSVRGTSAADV
UniProt O95336: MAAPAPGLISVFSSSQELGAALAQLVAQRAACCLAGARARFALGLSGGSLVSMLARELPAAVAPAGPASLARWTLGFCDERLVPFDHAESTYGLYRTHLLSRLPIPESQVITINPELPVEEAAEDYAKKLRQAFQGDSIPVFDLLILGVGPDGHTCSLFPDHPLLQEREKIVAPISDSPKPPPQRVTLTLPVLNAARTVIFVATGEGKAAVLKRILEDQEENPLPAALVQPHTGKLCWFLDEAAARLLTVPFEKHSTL
UniProt O15212, whole entry, looked up: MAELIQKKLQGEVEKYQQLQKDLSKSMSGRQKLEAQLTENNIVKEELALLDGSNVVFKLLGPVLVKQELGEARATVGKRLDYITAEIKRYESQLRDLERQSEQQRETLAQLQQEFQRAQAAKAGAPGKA
UniProt P40855: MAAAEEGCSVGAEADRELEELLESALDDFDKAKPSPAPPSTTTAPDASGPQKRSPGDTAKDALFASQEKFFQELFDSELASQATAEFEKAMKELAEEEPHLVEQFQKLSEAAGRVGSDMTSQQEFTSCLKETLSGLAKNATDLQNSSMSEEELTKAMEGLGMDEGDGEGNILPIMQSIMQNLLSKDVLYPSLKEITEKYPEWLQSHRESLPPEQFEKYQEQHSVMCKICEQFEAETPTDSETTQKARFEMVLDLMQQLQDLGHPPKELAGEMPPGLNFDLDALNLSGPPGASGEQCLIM
UniProt Q99640: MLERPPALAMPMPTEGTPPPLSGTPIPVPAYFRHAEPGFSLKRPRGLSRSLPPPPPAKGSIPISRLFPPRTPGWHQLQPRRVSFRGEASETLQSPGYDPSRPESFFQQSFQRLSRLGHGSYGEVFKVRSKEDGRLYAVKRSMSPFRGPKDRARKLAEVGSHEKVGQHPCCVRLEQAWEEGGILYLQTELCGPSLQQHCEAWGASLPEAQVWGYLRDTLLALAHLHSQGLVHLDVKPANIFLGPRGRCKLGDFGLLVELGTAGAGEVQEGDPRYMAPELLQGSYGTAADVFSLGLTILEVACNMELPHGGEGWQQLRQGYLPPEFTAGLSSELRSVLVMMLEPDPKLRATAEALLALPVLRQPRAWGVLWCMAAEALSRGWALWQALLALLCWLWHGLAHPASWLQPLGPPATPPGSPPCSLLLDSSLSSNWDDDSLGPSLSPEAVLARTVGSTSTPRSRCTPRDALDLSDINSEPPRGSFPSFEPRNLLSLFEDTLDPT
UniProt Q9BSJ6: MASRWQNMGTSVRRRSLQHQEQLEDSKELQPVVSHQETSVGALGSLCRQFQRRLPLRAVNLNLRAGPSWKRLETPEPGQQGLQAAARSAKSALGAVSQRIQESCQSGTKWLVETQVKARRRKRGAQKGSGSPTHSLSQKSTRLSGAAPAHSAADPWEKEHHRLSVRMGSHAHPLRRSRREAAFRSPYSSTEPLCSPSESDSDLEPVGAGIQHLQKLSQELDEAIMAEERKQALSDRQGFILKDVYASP
UniProt P51178: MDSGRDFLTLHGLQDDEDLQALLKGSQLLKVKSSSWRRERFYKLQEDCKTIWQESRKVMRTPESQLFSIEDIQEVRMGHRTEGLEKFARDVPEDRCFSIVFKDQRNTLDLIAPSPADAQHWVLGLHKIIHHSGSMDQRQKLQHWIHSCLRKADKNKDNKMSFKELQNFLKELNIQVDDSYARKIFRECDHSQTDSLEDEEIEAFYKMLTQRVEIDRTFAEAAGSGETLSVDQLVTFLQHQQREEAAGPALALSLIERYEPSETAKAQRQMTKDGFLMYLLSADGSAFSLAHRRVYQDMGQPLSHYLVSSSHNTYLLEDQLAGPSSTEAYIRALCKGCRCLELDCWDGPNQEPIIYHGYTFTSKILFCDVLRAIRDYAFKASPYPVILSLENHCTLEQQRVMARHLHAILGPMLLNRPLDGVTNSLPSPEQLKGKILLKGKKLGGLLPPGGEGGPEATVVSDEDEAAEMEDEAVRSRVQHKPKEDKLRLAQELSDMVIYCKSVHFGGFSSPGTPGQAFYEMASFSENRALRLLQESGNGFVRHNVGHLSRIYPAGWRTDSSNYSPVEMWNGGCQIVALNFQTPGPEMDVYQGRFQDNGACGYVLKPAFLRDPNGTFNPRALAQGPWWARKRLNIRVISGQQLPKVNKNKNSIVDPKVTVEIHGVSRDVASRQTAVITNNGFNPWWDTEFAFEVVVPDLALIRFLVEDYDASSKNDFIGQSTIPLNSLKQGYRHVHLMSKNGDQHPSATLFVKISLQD
UniProt Q8N0Y7: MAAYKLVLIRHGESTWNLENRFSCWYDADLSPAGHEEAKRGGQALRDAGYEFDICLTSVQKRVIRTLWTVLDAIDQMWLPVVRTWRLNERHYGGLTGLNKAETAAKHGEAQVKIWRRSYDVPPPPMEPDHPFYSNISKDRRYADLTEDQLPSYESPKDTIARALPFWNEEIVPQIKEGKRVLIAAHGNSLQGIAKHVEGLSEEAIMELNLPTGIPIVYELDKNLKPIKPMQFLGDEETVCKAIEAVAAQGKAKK
UniProt P28328: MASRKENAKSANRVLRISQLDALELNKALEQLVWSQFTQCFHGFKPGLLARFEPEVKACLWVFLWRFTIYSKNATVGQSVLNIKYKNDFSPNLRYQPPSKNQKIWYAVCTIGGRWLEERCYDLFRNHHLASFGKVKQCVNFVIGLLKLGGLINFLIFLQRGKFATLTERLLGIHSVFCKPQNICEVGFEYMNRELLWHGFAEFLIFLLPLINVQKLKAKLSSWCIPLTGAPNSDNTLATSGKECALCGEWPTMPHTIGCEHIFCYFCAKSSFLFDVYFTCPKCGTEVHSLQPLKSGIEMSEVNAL
UniProt Q9NQP4, whole entry, looked up: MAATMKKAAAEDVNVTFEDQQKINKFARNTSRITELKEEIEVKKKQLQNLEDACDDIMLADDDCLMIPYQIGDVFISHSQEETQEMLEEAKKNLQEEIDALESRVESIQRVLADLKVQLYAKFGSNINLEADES
UniProt P18669: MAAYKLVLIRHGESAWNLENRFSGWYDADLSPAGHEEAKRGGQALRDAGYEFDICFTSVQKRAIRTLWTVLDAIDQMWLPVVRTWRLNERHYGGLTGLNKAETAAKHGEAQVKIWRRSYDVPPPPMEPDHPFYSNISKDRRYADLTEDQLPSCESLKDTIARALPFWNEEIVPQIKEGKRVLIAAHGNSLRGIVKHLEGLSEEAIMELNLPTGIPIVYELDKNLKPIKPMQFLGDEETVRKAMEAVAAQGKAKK
UniProt Q9Y263: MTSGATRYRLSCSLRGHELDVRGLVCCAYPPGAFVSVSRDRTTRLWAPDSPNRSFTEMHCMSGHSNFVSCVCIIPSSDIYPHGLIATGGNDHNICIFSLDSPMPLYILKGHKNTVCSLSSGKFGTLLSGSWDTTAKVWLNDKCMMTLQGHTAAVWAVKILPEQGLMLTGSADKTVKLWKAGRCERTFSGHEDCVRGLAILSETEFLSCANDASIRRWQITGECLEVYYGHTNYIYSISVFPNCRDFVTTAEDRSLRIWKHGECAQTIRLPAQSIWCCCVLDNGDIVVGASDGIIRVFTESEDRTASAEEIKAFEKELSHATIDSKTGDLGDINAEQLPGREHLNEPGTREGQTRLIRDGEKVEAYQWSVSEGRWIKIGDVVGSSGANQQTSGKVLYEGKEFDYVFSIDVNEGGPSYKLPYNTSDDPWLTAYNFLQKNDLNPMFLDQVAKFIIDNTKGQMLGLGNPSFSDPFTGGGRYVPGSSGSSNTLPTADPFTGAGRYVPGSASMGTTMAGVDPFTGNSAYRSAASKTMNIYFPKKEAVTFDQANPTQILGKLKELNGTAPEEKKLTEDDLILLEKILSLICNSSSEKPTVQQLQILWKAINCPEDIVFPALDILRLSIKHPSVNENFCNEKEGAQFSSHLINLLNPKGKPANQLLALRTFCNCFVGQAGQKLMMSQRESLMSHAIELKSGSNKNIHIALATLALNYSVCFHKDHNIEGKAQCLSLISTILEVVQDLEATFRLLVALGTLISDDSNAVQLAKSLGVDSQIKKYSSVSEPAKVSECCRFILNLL
UniProt Q99569: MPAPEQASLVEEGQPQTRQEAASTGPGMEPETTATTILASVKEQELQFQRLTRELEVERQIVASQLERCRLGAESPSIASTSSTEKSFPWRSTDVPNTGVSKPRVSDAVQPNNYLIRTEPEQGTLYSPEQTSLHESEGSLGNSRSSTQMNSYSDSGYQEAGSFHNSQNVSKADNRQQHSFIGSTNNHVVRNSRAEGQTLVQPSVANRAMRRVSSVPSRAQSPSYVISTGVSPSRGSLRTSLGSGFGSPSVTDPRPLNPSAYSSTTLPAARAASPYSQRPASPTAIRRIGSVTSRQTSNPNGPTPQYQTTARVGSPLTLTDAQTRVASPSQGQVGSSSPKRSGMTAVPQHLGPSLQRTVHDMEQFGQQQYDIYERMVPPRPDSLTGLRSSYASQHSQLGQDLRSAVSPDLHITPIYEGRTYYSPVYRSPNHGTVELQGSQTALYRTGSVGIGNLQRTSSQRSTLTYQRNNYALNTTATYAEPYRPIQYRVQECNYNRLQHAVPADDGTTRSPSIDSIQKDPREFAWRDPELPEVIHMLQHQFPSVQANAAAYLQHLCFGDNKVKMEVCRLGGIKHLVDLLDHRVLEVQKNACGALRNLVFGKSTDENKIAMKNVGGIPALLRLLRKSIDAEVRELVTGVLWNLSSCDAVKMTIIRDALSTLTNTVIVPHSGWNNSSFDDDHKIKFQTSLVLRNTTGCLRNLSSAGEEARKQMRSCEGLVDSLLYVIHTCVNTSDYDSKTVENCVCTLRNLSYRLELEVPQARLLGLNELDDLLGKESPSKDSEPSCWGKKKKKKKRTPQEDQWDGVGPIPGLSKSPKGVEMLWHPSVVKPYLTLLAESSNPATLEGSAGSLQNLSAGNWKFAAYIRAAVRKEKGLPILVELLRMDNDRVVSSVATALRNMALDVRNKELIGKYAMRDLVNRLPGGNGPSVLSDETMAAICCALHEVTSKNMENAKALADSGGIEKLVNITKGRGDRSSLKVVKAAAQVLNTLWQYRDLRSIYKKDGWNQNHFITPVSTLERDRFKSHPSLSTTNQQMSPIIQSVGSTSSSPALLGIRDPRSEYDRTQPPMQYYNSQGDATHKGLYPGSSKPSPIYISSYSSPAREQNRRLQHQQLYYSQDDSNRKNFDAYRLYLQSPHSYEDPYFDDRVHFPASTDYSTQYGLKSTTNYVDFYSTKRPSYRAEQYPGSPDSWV

The values below come from the supplement of paper PMC10849652.

Compound in this assay: c1cn2cc(-c3ccc4cn[nH]c4c3)nc(Nc3ccc(N4CCOCC4)cc3)c2n1 [entospletinib]
The experiment in a line: log2 fold change, soluble protein after heating vs DMSO (PISA); higher = thermal stabilisation; K562 cells, 10 uM, 30 min; active = over 0.2 and 3.5 SD of the protein, either way, in both replicates (recomputed). The essentials: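 K562 cells at 2×10^6 cells/mL were treated with 10 μM compound for 30 min. Aliquots were heated for 3 min across 48°C-58°C, pooled, and extracted in PBS with 0.5% NP-40 at 4°C; soluble protein was the supernatant after 21,000xg for 90 min. Soluble protein was quantified by TMTpro 16plex LC-MS/MS with channel sums equalised, and reported as log2 fold change in thermal stability against DMSO controls, with values from duplicates.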
On to PHF3 (UniProt Q92576), for which the log2 fold change was inactive: 0.113. For PIK3R4 (UniProt Q99570) the value was inactive: -0.009. As for PGPEP1 (UniProt Q9NXJ5), the figure is inactive: -0.276; as for PKLR (UniProt P30613), inactive: -0.044; as for PGM2 (UniProt Q96G03), inactive: -0.037. As for PITPNB isoform 3 (UniProt P48739), the figure is inactive: 0.017. Consider PGLS (UniProt O95336), for which the log2 fold change was inactive: 0.045. For PHF6 (UniProt Q8IWS0) the value was inactive: 0.089; for PHB (UniProt P35232), inactive: -0.006; for PEX6 (UniProt Q13608), inactive: 0.033. For PHACTR2 isoform 4 (UniProt O75167) the value was inactive: -0.007; for PFDN6 (UniProt O15212), inactive: 0.008; for PEX19 (UniProt P40855), inactive: 0.019. For PKMYT1 (UniProt Q99640) the value was inactive: 0.044. Take PICALM (UniProt Q13492): the log2 fold change is inactive: 0.023.

With PGS1 (UniProt Q32NB8), the log2 fold change is inactive: -0.124. For the target PIMREG (UniProt Q9BSJ6), the log2 fold change was inactive: 0.107. As for PLCH1 (UniProt Q4KWH8), the figure is inactive: -0.037. For PLCD1 isoform 2 (UniProt P51178) the value was inactive: -0.01. Turning to PIN1 (UniProt Q13526), the log2 fold change is inactive: -0.017. As for PIEZO1 (UniProt Q92508), the figure is inactive: 0.022; as for PGAM4 (UniProt Q8N0Y7), inactive: 0.017; as for PHF19 isoform 2 (UniProt Q5T6S3), inactive: -0.091. As to PEX2 (UniProt P28328), the log2 fold change is inactive: -0.033. As for PIGX isoform 2 (UniProt Q8TBF5), the figure is inactive: -0.09.

On to PFDN4 (UniProt Q9NQP4), for which the log2 fold change was inactive: 0.046. On to PICALM (UniProt H0YEY8), for which the log2 fold change is inactive: 0.003. As for PGAM1 (UniProt P18669), the figure is inactive: 0.022; as for PLAA (UniProt Q9Y263), inactive: 0.007; as for PKP4 (UniProt Q99569), inactive: 0.018.
